# Test results: PubChem BioAssay AID2549 (National Center for Advancing Translational Sciences (NCATS), 2010)
# The chains behind the UniProt entries cited, without tags or fusion partners. Where a name states a change or a piece, a line headed by the entry shows the natural chain unless it says otherwise.
# UniProt P46063: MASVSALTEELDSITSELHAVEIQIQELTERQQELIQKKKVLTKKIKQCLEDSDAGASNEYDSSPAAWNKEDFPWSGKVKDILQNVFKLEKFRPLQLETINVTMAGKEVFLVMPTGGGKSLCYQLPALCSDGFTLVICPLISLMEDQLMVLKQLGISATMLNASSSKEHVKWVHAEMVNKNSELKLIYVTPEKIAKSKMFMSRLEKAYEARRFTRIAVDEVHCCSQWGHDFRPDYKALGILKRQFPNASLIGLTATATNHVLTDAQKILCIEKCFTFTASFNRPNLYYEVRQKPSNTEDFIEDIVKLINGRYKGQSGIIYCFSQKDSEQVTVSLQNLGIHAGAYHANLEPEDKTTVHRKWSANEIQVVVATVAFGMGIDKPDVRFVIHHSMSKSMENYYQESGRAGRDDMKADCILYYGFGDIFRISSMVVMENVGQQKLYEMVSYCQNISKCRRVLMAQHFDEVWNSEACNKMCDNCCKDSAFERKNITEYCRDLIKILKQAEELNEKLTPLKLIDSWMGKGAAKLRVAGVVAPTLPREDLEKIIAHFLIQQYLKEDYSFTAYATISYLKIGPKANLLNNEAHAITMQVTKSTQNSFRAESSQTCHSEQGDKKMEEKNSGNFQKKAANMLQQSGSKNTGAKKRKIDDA
# “And” between values parts separate entries of the source, which are not always exact repeats. Equal values may be shown once. In all, about 240,000 compounds went through this assay and about 1,300 (0.54%) were called active. The inconclusive results got no clear call from the source; some entries with a clear call stand among them for comparison. Calls follow the shape of the dose curve; as a rule, active = well fitted inhibition curve with a large enough effect; inconclusive = small, poorly fitted or top-dose-only effect; inactive = flat fitted curve, though single readings scatter. A potency beside an inconclusive call is a rough fit, not a confirmed value. Where a structure was tested more than once in an assay, its records may differ in their call.
# Biological target: ATP-dependent DNA helicase Q1 (Homo sapiens) (UniProt P46063)
# Experiment: qHTS Assay for Inhibitors of RecQ-Like Dna Helicase 1 (RECQ1); also: nearly all actives have a fitted effect of over 30% in size;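 as to activity, negative = inhibition: plate controls were vehicle for no effect and no enzyme for full effect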
# Details: RECQ1 DNA unwinding, red fluorescence kinetic read; activity, negative = inhibition: at 57.3 µM (top of the series); series mostly up to 57.3 µM
# How it was run: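 RECQ1T1 50 nM; forked duplex (20 bp + 30-nt ss tails) 200 nM, ATP 2 mM final; pH 8.0, 2 mM MgCl2, 2.5 ug/ml poly(dI-dC); 15 min compound preincubation; discontinuous kinetic read over 2 h at RT.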
# Potency is read from the fitted curve at half-maximal effect.
SMILES,"activity, negative = inhibition",Potency,outcome
COc1ccc(OC)c(C2=Nn3c(nnc3-c3cccc(OC)c3OC)SC2)c1,inactive: 11.7%,,
CO[C@H]1COC(=O)C/C=C\[C@H](C)[C@@H](NS(=O)(=O)c2ccc(C)cc2)COC(=O)C/C=C\[C@@H]1C,inactive: 14.7% [at 11.5 µM] and inactive: -9.45% [at 11.5 µM],,
O=C(NCc1ccco1)c1ccc(-c2ccc(Cl)cc2)o1,,"inconclusive: 3.98 µM [inhibitor, single point]",
O=C(Cc1cc(=O)[nH][nH]1)N/N=C/c1ccccc1Cl,inactive: -8.18%,,
CCCN(CCC)C1=N/C(=C\c2ccco2)C(=O)N1c1ccccc1,,active: 28.2 µM,
CC1(C)S[C@@H]2[C@H](NC(=O)[C@H](N)c3ccccc3)C(=O)N2[C@H]1C(=O)O,,active: 7.94 µM and active: 20 µM,
O=c1n(CCCN2CCN(c3cccc(Cl)c3)CC2)nc2ccccn12,,inactive,
COc1ccc(CNC(=O)COC(=O)c2cc(-c3ccco3)nc3ccccc23)cc1,,active: 11.2 µM,
COC(=O)c1ccc(S(=O)(=O)N2CCC(c3nc4ccccc4o3)CC2)cc1,inactive: -1.82%,,
O=C(NCc1ccccc1)C1=C[C@H](c2csc3ccccc23)C[C@H](OCc2ccc(CO)cc2)O1,,"inconclusive: 2.24 µM [inhibitor, full curve]",
Cc1nn(-c2ccccc2)c(N2CCCC2)c1/C=N/NC(=O)c1ccccc1O,inactive: 10.7%,,
O=C(O)c1cc(=O)[nH]c(=O)[nH]1,inactive: -5.26%,,
CCOC(=O)C(=CNc1ccc(-c2ccco2)c(Cl)c1)C(=O)OCC,,"inconclusive: 22.4 µM [inhibitor, partial curve, poor fit]",
COc1ccc(-c2c(C)n([O-])c3c([n+]2=O)CCCC3)cc1,,"inconclusive: 0.562 µM [inhibitor, partial curve, poor fit]",
CCCNC(=O)NC(=O)COC(=O)c1ccc(OC)c(S(=O)(=O)N2CCCc3ccccc32)c1,,"inconclusive: 39.8 µM [inhibitor, single point]",
CC[C@H](C)[C@H](NC(=O)[C@@H]1CCCN1C(=O)[C@H](C)NC(=O)[C@H](CC(N)=O)NC(=O)[C@@H]1CCCN1C(=O)[C@@H]1CCCN1C(=O)[C@H](CCCN=C(N)N)NC(=O)[C@H](Cc1ccc(O)cc1)NC(=O)[C@H](C)NC(=O)[C@@H]1CCCN1C(=O)[C@@H]1CCCN1C(=O)[C@@H](N)[C@@H](C)O)C(=O)N[C@@H](CC(C)C)C(=O)O,inactive: -17.1%,,
CC(C)C1Nc2c(O)cc(Cl)c([N+](=O)[O-])c2C2C=CCC21 (stereo not given),,"inconclusive: 39.8 µM [inhibitor, single point]",
COc1ccc2ccc3c(c2c1)N=CC1(O3)N(C)c2ccccc2C1(C)C (stereo not given),,"inconclusive: 35.5 µM [inhibitor, single point]",
CCOC(=O)N1CCC(NC(=O)c2cccc3c2C(=O)N(c2ccc(OC)cc2)C3)CC1,,active: 11.2 µM,
Cn1c(N/N=C/c2ccccc2)nc2sc3c(c2c1=O)CCC3,,"inconclusive: 39.8 µM [inhibitor, single point]",
NC(Cc1cc(I)c(Oc2ccc(O)c(I)c2)c(I)c1)C(=O)O (stereo not given),,,inactive
N#C/C(=C/c1ccc(-c2ccc(S(N)(=O)=O)cc2)o1)C(=O)Nc1ccccc1,inactive: -12.1%,,
Cc1ccnc(SCC(=O)c2ccc(Br)cc2)c1C#N,,"inconclusive: 0.355 µM [inhibitor, full curve, poor fit]",

# In the list so far, these contain nitrogen in an aromatic ring:
SMILES,"activity, negative = inhibition",Potency,outcome
COc1ccc(OC)c(C2=Nn3c(nnc3-c3cccc(OC)c3OC)SC2)c1,inactive: 11.7%,,
O=C(Cc1cc(=O)[nH][nH]1)N/N=C/c1ccccc1Cl,inactive: -8.18%,,
O=c1n(CCCN2CCN(c3cccc(Cl)c3)CC2)nc2ccccn12,,inactive,
COc1ccc(CNC(=O)COC(=O)c2cc(-c3ccco3)nc3ccccc23)cc1,,active: 11.2 µM,
COC(=O)c1ccc(S(=O)(=O)N2CCC(c3nc4ccccc4o3)CC2)cc1,inactive: -1.82%,,
Cc1nn(-c2ccccc2)c(N2CCCC2)c1/C=N/NC(=O)c1ccccc1O,inactive: 10.7%,,
O=C(O)c1cc(=O)[nH]c(=O)[nH]1,inactive: -5.26%,,
COc1ccc(-c2c(C)n([O-])c3c([n+]2=O)CCCC3)cc1,,"inconclusive: 0.562 µM [inhibitor, partial curve, poor fit]",
Cn1c(N/N=C/c2ccccc2)nc2sc3c(c2c1=O)CCC3,,"inconclusive: 39.8 µM [inhibitor, single point]",
Cc1ccnc(SCC(=O)c2ccc(Br)cc2)c1C#N,,"inconclusive: 0.355 µM [inhibitor, full curve, poor fit]",

# More results follow.

SMILES,"activity, negative = inhibition",Potency,outcome
CCN(CC)CCCNc1nc2cc(OC)c(OC)cc2c2nc(-c3ccccc3)nn12,,"inconclusive: 14.1 µM [inhibitor, partial curve]",
O=C(O)CC1S/C(=N\N=C/c2ccccc2)N(c2ccc(O)cc2)C1=O (stereo not given),inactive: -2.55%,,
CC(=O)c1cc(CN2C(=O)c3ccccc3C2=O)cs1,inactive: -12%,,
CCCC(=O)N(C1CC(C)C(C#N)(C#N)C1(C#N)C#N)N(C)C (stereo not given),inactive: -0.651%,,
Cc1ccc(C(CCN(Cc2ccccc2)C(=O)c2ccco2)c2ccco2)cc1 (stereo not given),,active: 20 µM,
Nc1cccc2[nH]c(C(F)(F)F)nc12,inactive: -3.47%,,
Cc1cc(C(=O)Nc2sc3c(c2C#N)CCC(C)C3)cs1 (stereo not given),,"inconclusive: 39.8 µM [inhibitor, single point]",
CC(=O)N(/C=C1\SC(=S)N(c2ccccc2)C1=O)c1ccccc1,,active: 31.6 µM,
O=C(Nc1ccc(S(=O)(=O)Nc2nccs2)cc1)c1cc(-c2ccncc2)nc2ccccc12,,"inconclusive: 25.1 µM [inhibitor, single point]",
Cc1ccc2sc(NNC(=O)c3cc(-c4cccs4)nc4ccccc34)nc2c1C,,"inconclusive: 1 µM [inhibitor, full curve, poor fit]",
O=C(N/N=C/c1cc(Br)c(Br)o1)c1ccc2c(c1)OCCO2,,"inconclusive: 35.5 µM [inhibitor, single point]",
CCCOc1ccc(-c2csc(N)n2)cc1[N+](=O)[O-],,"inconclusive: 39.8 µM [inhibitor, single point]",
O=C(CCOc1ccccc1)N1CCN(c2ccc(O)cc2)CC1,inactive: 2.04%,,
CCOC(=O)/C=c1\sc2n(c1=O)CCN=2,,"inconclusive: 0.158 µM [inhibitor, full curve, poor fit]",
O=C(/C=C/c1ccc(OCCCF)cc1)NCc1ccc(Cl)cc1,,"inconclusive: 39.8 µM [inhibitor, single point]",
Cc1cc(C(=O)C(C)Cl)c(C)n1Cc1ccco1 (stereo not given),,"inconclusive: 22.4 µM [inhibitor, single point]",
Cc1ccc(NC(=O)COC(=O)COc2ccc(Cl)cc2C)c([N+](=O)[O-])c1,,"inconclusive: 7.08 µM [inhibitor, full curve]",
N#Cc1nc(Cc2ccccc2)oc1NCc1cccnc1,inactive: -5.22%,,
Cc1c(N/N=C(\C#N)C(=O)c2ccccc2)c(=O)n(-c2ccccc2)n1C,inactive: -6.45%,,
CC(C)CCC[C@@H](C)[C@H]1CC[C@H]2[C@@H]3CC=C4CC(O)CC[C@]4(C)[C@H]3CC[C@]12C (stereo not given in full),inactive: -13.3%,,
O=Nc1c(O)[nH]c2c(Cl)c(Cl)ccc12,,"inconclusive: 8.91 µM [inhibitor, partial curve]",
O=C(CC1NC(=O)NC1=O)NC1(C(=O)NC2CCCCC2)CCCCC1 (stereo not given),inactive: -3.61%,,
